In the supplement of paper PMC6411743:
± gives the standard deviation of the averaged measurements. Only a part is listed here, and it is no random draw. Most entries show no effect beyond the scatter of the controls.

Molecular target: VKORC1 (UniProt Q9BQB6)
Assay: NP40-soluble protein abundance relative to vehicle (solubility fold change) (ratio); higher = more soluble protein in presence of ATP
Outline: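 Crude Jurkat lysate, prepared by Dounce homogenisation, was exposed to eight concentrations from 0.1 to 10 mM for 10 min at room temperature and then 3 min at 37 °C. Solubilisation used 0.8% NP40 with benzonase for 60 min at 4 °C, followed by ultracentrifugation and TMT labelling of the supernatant for LC-MS/MS. After vsn normalisation of intensities, each value is the fold change against the detergent-processed vehicle within each replicate, across three independent experiments.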

## Nc1ncnc2c1ncn2[C@@H]1O[C@H](COP(=O)(O)OP(=O)(O)OP(=O)(O)O)[C@@H](O)[C@H]1O [adenosine triphosphate]
concentration: 0.1mM
  NP40-soluble protein abundance: 1.02 ± 0.042
concentration: 0.5mM
  NP40-soluble protein abundance: 0.978 ± 0.056
